PubChem BioAssay AID1259308 – NCATS – 2017

- Screen: 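Candidate targets for better recombinant protein yield in mammalian cells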 (primary screen)
- System: human HEK293 embryonic kidney cells stably expressing firefly luciferase (HEK-CMV-Luc2-Hygro)
- Knock-down reagent: single siRNA against human genes, 0.8 pmol siRNA per well
- Time to read-out: 72 h
- Detection: 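Reporter luminescence and viable-cell signal on separate replicate plates, given as percent of non-targeting control and median/MAD z-scores, plus per-cell luciferase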
- Scale: total luciferase, z-score and total luciferase, % of control: higher = more reporter protein produced
- Call rule: 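An siRNA counts as active if its total luciferase robust z-score exceeds 3; genes with two or more such siRNAs out of three were retested with fresh siRNAs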
- Meaning of the calls: active = raised luciferase; inactive = no rise
This is one part, drawn at random, of about 59,000 reagents. In the full data, about 1,510 (2.6%) got an active call. 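Calls use total luciferase alone and ignore viability, so some active siRNAs may act by altering cell number.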 The numbers tell different reagents against one gene apart. Not all columns of the deposit are shown. Reagent sequences are not shown.

gene,reagent,"total luciferase, z-score","total luciferase, % of control",activity call
HNRNPUL2,1,0.104,84,inactive
HNRNPUL2,2,0.377,89.4,inactive
HNRNPUL2,3,0.485,91.5,inactive
QSER1,1,1.57,113,inactive
QSER1,2,0.52,92.2,inactive
QSER1,3,0.679,95.4,inactive
KRTAP19-3,1,-0.752,66.9,inactive
KRTAP19-3,2,-1.4,53.9,inactive
KRTAP19-3,3,-0.956,62.9,inactive
ATP11A,1,0.246,86.8,inactive
ATP11A,2,-0.507,71.8,inactive
ATP11A,3,0.561,93,inactive
RAD23A,1,-1.26,56.7,inactive
RAD23A,2,-0.84,65.2,inactive
RAD23A,3,0.098,83.8,inactive
ITSN2,1,0.408,90,inactive
ITSN2,2,0.0918,83.7,inactive
ITSN2,3,-0.916,63.7,inactive
JARID2,1,0.0524,82.9,inactive
JARID2,2,0.146,84.8,inactive
JARID2,3,-0.0512,80.9,inactive
OR4D2,1,-1.29,56.3,inactive
OR4D2,2,-0.0757,80.4,inactive
OR4D2,3,0.333,88.5,inactive
CSNK1D,1,2.3,128,inactive
CSNK1D,2,-0.0157,81.6,inactive
CSNK1D,3,-1.52,51.7,inactive
MRPL30,1,-1.86,44.8,inactive
MRPL30,2,1.69,115,inactive
MRPL30,3,-0.467,72.6,inactive
LMO1,1,0.353,88.9,inactive
LMO1,2,0.967,101,inactive
LMO1,3,-1.12,59.7,inactive
DDX18,1,-0.956,62.9,inactive
DDX18,2,0.3,87.8,inactive
DDX18,3,-1.4,54.1,inactive
EIF3CL,1,-2.51,31.9,inactive
EIF3CL,2,-1.93,43.5,inactive
EIF3CL,3,-2.65,29.2,inactive
CFAP97D1,1,0.278,87.4,inactive
CFAP97D1,2,-2.14,39.2,inactive
CFAP97D1,3,0.051,82.9,inactive

Records above whose target name begins with M or m:
gene,reagent,"total luciferase, z-score","total luciferase, % of control",activity call
MRPL30,1,-1.86,44.8,inactive
MRPL30,2,1.69,115,inactive
MRPL30,3,-0.467,72.6,inactive

Additional results follow:
gene,reagent,"total luciferase, z-score","total luciferase, % of control",activity call
LRP12,1,0.84,98.6,inactive
LRP12,2,2.19,126,inactive
LRP12,3,0.51,92,inactive
KBTBD11,1,0.98,101,inactive
KBTBD11,2,-0.0915,80.1,inactive
KBTBD11,3,0.157,85,inactive
MAS1,1,1.1,104,inactive
MAS1,2,-0.509,71.8,inactive
MAS1,3,1.73,116,inactive
ZFYVE26,1,0.444,90.7,inactive
ZFYVE26,2,0.964,101,inactive
ZFYVE26,3,-1.04,61.3,inactive
MINDY3,1,0.38,89.4,inactive
MINDY3,2,-0.167,78.6,inactive
MINDY3,3,-1.24,57.3,inactive
ANKDD1B,1,-0.697,68,inactive
ANKDD1B,2,2.14,124,inactive
ANKDD1B,3,0.396,89.8,inactive
ACER1,1,0.217,86.2,inactive
ACER1,2,1.01,102,inactive
ACER1,3,-0.0879,80.1,inactive
TMEM102,1,-1.56,50.9,inactive
TMEM102,2,0.26,87.1,inactive
TMEM102,3,-1.12,59.5,inactive
SYDE1,1,-0.594,70.1,inactive
SYDE1,2,0.0626,83.1,inactive
SYDE1,3,-0.276,76.4,inactive
SLC51A,1,0.091,83.7,inactive
SLC51A,2,-0.171,78.5,inactive
SLC51A,3,-0.000635,81.9,inactive
DRP2,1,-0.734,67.3,inactive
DRP2,2,1.93,120,inactive
DRP2,3,0.379,89.4,inactive
